Source: article PMC10316081

The chains behind the UniProt entries cited, without tags or fusion partners. Where a name states a change or a piece, a line headed by the entry shows the natural chain unless it says otherwise.
UniProt O75140: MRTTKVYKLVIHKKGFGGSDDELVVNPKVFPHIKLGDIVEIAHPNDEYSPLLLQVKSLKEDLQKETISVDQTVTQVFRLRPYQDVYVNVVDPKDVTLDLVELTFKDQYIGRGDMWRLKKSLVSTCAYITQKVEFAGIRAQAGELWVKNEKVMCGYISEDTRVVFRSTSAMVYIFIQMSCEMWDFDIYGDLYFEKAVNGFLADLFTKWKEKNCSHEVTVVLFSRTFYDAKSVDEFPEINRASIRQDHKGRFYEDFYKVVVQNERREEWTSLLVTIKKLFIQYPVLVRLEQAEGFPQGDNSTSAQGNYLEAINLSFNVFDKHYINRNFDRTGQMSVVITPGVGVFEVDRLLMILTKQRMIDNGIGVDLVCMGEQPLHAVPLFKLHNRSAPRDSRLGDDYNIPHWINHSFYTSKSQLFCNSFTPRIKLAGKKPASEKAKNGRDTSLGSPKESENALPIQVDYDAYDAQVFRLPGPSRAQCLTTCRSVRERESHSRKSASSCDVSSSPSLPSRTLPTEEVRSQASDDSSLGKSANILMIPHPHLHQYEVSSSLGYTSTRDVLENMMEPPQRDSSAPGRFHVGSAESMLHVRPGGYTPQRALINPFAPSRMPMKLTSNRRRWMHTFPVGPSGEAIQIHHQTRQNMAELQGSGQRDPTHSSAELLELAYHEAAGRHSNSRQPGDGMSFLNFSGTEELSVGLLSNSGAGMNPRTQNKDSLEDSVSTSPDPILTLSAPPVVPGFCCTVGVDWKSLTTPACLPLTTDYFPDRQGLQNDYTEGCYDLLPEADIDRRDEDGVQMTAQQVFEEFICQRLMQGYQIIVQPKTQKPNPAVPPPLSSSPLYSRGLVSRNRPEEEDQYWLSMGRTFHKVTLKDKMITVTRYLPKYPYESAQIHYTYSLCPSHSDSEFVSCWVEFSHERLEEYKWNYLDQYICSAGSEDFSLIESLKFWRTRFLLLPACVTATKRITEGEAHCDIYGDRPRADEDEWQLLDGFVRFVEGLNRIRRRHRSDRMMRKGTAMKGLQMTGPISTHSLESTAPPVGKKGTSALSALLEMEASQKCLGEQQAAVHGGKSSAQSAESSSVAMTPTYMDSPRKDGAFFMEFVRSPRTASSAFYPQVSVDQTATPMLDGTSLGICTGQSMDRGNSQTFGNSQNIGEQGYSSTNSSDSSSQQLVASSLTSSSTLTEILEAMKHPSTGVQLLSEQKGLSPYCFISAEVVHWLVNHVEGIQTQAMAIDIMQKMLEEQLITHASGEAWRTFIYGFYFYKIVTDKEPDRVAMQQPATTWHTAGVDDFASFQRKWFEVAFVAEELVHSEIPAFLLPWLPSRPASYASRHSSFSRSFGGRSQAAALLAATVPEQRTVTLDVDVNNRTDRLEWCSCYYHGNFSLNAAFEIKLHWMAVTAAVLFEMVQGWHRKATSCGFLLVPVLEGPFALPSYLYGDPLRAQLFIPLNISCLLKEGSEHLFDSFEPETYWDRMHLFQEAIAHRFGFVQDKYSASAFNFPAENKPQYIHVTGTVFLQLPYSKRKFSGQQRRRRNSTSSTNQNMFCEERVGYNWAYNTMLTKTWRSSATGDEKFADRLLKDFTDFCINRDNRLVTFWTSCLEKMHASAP

B1: HA-Nprl3 (protein, UniProt Q12980 1-569)
chain: MRDNTSPISVILVSSGSRGNKLLFRYPFQRSQEHPASQTSKPRSRYAASNTGDHADEQDGDSRFSDVILATILATKSEMCGQKFELKIDNVRFVGHPTLLQHALGQISKTDPSPKREAPTMILFNVVFALRANADPSVINCLHNLSRRIATVLQHEERRCQYLTREAKLILALQDEVSAMADGNEGPQSPFHHILPKCKLARDLKEAYDSLCTSGVVRLHINSWLEVSFCLPHKIHYAASSLIPPEAIERSLKAIRPYHALLLLSDEKSLLGELPIDCSPALVRVIKTTSAVKNLQQLAQDADLALLQVFQLAAHLVYWGKAIIIYPLCENNVYMLSPNASVCLYSPLAEQFSHQFPSHDLPSVLAKFSLPVSLSEFRNPLAPAVQETQLIQMVVWMLQRRLLIQLHTYVCLMASPSEEEPRPREDDVPFTARVGGRSLSTPNALSFGSPTSSDDMTLTSPSMDNSSAELLPSGDSPLNQRMTENLLASLSEHERAAILSVPAAQNPEDLRMFARLLHYFRGRHHLEEIMYNENTRRSQLLMLFDKFRSVLVVTTHEDPVIAVFQALLP
B2: HA-Nprl2 (protein, UniProt Q8WTW4 1-380)
chain: MGSGCRIECIFFSEFHPTLGPKITYQVPEDFISRELFDTVQVYIITKPELQNKLITVTAMEKKLIGCPVCIEHKKYSRNALLFNLGFVCDAQAKTCALEPIVKKLAGYLTTLELESSFVSMEESKQKLVPIMTILLEELNASGRCTLPIDESNTIHLKVIEQRPDPPVAQEYDVPVFTKDKEDFFNSQWDLTTQQILPYIDGFRHIQKISAEADVELNLVRIAIQNLLYYGVVTLVSILQYSNVYCPTPKVQDLVDDKSLQEACLSYVTKQGHKRASLRDVFQLYCSLSPGTTVRDLIGRHPQQLQHVDERKLIQFGLMKNLIRRLQKYPVRVTREEQSHPARLYTGCHSYDEICCKTGMSYHELDERLENDPNIIICWK

Columns and labels:
[1] = target: Flag-Depdc5(R1407A) (human) (UniProt O75140); assay: SEC; Flag-Depdc5, HA-Nprl2 and HA-Nprl3 co-expressed in 293-FreeStyle cells; Flag-M2 affinity gel, washed with 300 mM NaCl, eluted with 3x Flag peptide, then HiLoad 16/60 Superdex 200 gel filtration; fractions on a Coomassie-stained gel
[2] = target: Flag-Depdc5(R1407D) (human) (UniProt O75140); assay: as above

Row | Binder | binding [1] | binding [2]
1 | B1 | binds | binds
2 | B2 | binds | 

Results are given in words; binding and its absence hold for the method and conditions named. A result given as binding can be weak or reduced; the word gives no strength. Sequences can lack the tags named with a protein.
